Results taken from the supplement of paper PMC11006884.
The list shows a part of the results, in another mix than the full data.

Sequences of proteins named here, by UniProt entry; tags and fusion partners are left off. A change or cut given only in a name is not applied to a line headed by its entry.
UniProt P54132: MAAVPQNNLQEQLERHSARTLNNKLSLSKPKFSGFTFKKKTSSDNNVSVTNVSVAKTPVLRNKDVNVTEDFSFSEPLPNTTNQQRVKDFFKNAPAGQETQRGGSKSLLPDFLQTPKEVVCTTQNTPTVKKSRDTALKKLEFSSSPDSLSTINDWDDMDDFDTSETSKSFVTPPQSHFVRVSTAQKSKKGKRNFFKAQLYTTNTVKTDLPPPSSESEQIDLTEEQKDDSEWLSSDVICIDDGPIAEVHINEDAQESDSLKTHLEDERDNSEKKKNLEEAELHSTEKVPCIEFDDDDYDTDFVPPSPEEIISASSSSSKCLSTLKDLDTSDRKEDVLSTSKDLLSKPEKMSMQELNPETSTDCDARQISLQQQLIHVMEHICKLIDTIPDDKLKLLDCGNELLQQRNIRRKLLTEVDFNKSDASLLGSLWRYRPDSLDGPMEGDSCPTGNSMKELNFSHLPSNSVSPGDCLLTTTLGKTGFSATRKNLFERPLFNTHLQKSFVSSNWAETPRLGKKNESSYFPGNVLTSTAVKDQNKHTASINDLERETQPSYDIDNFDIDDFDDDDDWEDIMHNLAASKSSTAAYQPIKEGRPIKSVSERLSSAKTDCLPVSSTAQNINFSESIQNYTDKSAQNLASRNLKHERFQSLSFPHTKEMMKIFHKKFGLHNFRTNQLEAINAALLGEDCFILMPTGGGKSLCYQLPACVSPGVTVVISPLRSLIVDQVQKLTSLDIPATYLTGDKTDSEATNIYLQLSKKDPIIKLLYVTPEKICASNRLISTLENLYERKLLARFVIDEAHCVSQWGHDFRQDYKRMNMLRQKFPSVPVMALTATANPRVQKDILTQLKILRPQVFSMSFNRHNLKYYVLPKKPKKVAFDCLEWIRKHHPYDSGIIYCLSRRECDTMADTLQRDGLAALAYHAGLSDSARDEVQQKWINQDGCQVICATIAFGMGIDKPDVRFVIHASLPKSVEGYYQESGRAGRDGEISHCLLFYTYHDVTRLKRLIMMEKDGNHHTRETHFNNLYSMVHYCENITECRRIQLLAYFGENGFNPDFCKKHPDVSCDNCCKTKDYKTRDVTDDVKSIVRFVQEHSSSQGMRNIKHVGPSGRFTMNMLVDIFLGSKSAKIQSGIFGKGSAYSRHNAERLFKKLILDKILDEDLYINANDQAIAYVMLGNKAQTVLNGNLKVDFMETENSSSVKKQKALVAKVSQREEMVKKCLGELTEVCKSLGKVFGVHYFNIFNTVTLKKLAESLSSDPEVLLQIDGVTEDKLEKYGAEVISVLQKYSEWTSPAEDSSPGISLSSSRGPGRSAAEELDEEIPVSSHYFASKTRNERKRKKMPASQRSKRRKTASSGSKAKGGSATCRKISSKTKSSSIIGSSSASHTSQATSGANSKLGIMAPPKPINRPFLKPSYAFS
UniProt P55060: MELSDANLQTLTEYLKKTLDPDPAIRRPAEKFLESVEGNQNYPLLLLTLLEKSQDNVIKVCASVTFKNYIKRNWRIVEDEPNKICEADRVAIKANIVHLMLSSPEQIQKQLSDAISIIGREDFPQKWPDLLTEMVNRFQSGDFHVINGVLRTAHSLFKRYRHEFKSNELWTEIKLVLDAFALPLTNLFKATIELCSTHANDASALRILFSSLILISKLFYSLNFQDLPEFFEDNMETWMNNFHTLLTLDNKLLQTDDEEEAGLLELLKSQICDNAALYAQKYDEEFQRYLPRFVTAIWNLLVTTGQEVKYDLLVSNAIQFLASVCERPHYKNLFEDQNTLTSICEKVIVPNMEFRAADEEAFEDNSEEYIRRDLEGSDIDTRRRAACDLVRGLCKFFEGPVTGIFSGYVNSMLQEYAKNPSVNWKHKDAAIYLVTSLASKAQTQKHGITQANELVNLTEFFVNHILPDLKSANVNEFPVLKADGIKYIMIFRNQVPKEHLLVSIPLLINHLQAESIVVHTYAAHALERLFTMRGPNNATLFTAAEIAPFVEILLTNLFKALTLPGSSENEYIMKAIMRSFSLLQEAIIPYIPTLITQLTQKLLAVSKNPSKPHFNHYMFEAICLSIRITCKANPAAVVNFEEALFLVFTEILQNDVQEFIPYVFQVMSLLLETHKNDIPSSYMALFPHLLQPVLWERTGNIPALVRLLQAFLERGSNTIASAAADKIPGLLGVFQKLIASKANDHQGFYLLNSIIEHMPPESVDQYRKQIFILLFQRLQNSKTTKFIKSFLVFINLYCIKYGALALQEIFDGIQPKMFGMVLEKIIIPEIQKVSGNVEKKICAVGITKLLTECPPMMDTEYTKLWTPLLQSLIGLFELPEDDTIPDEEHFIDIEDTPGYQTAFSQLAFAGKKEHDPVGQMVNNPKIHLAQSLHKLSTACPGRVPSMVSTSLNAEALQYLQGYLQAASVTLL
UniProt P53701: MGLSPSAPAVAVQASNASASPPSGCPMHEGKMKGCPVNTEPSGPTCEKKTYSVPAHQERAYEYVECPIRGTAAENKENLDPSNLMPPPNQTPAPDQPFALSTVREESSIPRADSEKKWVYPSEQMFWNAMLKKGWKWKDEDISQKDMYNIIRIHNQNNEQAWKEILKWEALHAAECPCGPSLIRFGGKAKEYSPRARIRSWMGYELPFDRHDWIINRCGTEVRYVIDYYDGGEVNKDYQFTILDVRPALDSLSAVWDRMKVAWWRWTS
UniProt P55769: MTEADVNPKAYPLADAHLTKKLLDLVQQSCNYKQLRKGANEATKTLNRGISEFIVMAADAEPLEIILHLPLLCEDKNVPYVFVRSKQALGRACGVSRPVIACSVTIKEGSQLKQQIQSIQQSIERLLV
UniProt P53384: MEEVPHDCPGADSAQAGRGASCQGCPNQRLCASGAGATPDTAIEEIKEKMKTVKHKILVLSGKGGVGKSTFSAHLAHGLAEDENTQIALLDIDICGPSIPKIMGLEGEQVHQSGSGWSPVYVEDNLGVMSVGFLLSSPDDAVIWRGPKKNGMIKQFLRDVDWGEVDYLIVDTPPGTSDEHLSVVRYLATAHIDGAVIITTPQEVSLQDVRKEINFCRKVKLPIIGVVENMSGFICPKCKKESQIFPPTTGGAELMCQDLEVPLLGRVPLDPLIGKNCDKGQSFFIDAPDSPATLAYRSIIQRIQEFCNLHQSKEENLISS
UniProt P56277: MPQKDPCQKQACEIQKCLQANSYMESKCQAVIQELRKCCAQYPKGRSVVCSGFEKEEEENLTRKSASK
UniProt P52948: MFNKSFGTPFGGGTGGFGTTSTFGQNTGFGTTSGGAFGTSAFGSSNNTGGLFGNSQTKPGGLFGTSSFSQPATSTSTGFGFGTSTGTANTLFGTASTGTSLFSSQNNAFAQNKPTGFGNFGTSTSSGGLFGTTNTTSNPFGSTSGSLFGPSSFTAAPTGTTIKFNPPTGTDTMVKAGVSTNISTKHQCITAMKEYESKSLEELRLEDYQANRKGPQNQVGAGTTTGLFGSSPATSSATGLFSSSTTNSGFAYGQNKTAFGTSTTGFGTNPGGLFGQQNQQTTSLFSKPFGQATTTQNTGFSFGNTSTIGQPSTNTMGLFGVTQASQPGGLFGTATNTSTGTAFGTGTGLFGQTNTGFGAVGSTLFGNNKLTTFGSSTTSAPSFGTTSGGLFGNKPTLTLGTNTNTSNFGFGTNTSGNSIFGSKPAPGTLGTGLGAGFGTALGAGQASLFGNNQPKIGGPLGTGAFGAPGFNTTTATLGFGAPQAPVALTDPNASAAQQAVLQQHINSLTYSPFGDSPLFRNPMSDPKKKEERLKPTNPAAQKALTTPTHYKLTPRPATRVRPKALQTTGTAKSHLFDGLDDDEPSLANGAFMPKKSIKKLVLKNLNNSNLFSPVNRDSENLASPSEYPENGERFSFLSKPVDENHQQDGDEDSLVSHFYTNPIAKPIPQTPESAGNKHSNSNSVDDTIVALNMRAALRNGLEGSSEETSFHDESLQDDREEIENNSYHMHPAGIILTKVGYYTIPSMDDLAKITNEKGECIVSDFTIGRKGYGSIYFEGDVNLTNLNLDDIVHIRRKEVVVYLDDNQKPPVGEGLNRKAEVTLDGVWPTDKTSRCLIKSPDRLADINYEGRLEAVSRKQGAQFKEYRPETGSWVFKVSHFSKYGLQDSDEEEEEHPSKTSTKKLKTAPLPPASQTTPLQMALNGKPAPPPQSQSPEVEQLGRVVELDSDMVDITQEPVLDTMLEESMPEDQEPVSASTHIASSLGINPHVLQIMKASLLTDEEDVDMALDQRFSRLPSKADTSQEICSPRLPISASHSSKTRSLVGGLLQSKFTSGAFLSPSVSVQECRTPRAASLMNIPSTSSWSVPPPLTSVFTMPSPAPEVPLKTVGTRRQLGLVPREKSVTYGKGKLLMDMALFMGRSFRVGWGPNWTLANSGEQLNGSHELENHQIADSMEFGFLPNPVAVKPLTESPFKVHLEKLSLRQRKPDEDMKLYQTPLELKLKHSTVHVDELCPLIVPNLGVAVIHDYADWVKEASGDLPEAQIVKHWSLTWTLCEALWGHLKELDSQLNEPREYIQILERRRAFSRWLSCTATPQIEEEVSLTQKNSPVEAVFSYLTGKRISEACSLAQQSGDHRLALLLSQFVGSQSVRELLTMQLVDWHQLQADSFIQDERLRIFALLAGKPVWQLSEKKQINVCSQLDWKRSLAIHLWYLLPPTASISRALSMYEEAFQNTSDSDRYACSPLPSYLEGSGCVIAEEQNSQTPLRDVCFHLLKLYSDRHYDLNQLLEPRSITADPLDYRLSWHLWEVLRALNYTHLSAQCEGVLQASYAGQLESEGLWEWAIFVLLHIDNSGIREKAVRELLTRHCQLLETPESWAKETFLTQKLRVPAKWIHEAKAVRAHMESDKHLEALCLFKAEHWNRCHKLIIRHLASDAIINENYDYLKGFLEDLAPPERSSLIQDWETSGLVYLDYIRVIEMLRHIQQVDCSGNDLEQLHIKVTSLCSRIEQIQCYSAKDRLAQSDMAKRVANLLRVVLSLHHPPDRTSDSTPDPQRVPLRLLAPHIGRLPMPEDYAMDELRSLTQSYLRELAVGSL
UniProt P53597: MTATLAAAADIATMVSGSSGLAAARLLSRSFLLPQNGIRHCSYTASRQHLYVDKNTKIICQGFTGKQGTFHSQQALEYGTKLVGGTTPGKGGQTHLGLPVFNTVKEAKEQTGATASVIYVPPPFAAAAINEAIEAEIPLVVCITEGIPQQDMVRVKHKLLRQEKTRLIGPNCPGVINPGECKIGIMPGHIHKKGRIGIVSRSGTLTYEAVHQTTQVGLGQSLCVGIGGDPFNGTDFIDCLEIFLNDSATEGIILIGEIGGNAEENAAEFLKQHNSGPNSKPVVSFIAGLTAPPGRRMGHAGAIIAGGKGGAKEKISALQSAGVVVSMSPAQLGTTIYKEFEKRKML
UniProt P51687: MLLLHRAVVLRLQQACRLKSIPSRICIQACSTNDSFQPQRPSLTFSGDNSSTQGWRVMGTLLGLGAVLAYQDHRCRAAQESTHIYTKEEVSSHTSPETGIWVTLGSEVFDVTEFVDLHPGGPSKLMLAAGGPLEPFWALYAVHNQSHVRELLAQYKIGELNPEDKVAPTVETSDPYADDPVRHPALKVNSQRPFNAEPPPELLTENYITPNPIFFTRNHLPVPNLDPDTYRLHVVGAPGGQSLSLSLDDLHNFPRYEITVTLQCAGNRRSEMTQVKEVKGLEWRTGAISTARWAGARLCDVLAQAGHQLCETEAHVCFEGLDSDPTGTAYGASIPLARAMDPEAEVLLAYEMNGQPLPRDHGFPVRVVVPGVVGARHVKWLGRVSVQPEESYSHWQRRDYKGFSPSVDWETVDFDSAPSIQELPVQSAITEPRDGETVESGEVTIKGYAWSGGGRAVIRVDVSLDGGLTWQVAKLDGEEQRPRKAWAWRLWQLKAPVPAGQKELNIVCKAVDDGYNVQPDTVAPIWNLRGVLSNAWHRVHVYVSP
UniProt P53350, whole entry, looked up: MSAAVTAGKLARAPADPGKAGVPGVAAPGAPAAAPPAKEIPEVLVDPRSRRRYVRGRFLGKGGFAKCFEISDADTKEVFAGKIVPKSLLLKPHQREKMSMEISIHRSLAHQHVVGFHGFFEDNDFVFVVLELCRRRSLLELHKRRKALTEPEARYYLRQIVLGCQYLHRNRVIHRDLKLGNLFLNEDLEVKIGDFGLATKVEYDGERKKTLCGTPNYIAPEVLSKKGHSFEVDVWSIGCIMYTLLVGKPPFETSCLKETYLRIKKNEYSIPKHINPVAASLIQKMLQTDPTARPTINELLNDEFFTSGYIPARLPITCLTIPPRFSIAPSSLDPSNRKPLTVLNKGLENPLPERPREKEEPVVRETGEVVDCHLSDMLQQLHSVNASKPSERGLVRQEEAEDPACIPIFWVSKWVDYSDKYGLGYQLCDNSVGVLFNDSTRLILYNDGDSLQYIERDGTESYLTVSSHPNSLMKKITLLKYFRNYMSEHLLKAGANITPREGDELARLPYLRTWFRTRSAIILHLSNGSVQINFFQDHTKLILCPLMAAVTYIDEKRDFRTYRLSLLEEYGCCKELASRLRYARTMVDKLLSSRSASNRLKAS

Each target was assayed with COC(=O)C#Cc1ccccc1 [methyl 3-phenylpropiolate] (assay: log2 ratio of iodoacetamide-alkyne labeling of the cysteine site, DMSO over compound (competition); higher = stronger covalent engagement of the cysteine by the compound, active = 1 or more). Conditions: 500 µM; treatment time 1 h; system: HEK293T cell lysate.
Outline: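 HEK293T lysate at 2 mg/mL was treated with vehicle or electrophile (500 µM) for 1 h at ambient temperature, then labelled with iodoacetamide alkyne (1 h), clicked to sCIP-TMT reagents, pooled, digested with trypsin overnight at 37 °C, enriched on streptavidin and eluted with acid. Peptides were analysed by Orbitrap Eclipse LC-MS/MS with FAIMS and quantified in FragPipe, using duplicate channels and three replicates, with cysteines quantified in only one replicate excluded. The log2 competition ratio for each cysteine is the mean control-channel reporter intensity divided by the mean compound-channel reporter intensity.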

| Target | log2 ratio of iodoacetamide-alkyne labeling |
| --- | --- |
| BLM C704 (UniProt P54132) | inactive: 0.6 |
| CSE1L C344 (UniProt P55060) | inactive: 0.483 |
| HCCS C178 (UniProt P53701) | inactive: 0.0323 |
| UniProt P61088_C87 | inactive: 0.15 |
| ACTR3 C8 (UniProt P61158) | inactive: 0.0125 |
| UniProt P60709_C285 | inactive: 0.0555 |
| RARS C34 (UniProt P54136) | inactive: 0.605 |
| POLG C647 (UniProt P54098) | inactive: 0.315 |
| UniProt P55769_C73 | inactive: -0.0299 |
| ADAR C630 (UniProt P55265) | inactive: 0.457 |
| ADK C353 (UniProt P55263) | inactive: 0.274 |
| NDUFA8 C110 (UniProt P51970) | active: 1.12 |
| DGKE C264 (UniProt P52429) | inactive: 0.223 |
| HCCS C66 (UniProt P53701) | inactive: 0.724 |
| EEFSEC C93 (UniProt P57772) | inactive: 0.229 |
| HNRNPM C114 (UniProt P52272) | inactive: -0.0182 |
| GEMIN4 C9 (UniProt P57678) | inactive: 0.488 |
| UniProt P60660_C32 | inactive: 0.0279 |
| UniProt P55196_C942 | active: 1.05 |

Single entries from above:
log2 ratio of iodoacetamide-alkyne labeling, ADAR C630 (UniProt P55265) is entered as inactive: 0.457
log2 ratio of iodoacetamide-alkyne labeling, HCCS C66 (UniProt P53701) is entered as inactive: 0.724

Continued.

| Target | log2 ratio of iodoacetamide-alkyne labeling |
| --- | --- |
| EIF3B C420 (UniProt P55884) | inactive: -0.172 |
| UniProt P61927_C19 | inactive: -0.0866 |
| HNRNPM C653 (UniProt P52272) | inactive: 0.0149 |
| UniProt P60891_C230 | inactive: 0.704 |
| MARS C12 (UniProt P56192) | inactive: 0.428 |
| NUBP1 C256 (UniProt P53384) | inactive: 0.105 |
| UniProt P61106_C40 | inactive: 0.513 |
| PGD C422 (UniProt P52209) | inactive: -0.311 |
| BLM C698 (UniProt P54132) | inactive: 0.6 |
| CMC4 C12 (UniProt P56277) | active: 1.14 |
| PPP5C C11 (UniProt P53041) | inactive: 0.16 |
| NUP98 C1068 (UniProt P52948) | inactive: 0.537 |
| HIRA C882 (UniProt P54198) | inactive: 0.416 |
| SUCLG1 C60 (UniProt P53597) | inactive: 0.351 |
| SUOX C310 (UniProt P51687) | inactive: 0.0591 |
| PLK1 C372 (UniProt P53350) | inactive: 0.506 |
| UniProt P62241_C182 | inactive: 0.549 |
| UniProt P61981_C97 | inactive: -0.213 |
